According to PMC9569500:
These are yes or no findings as the source states them, for the method shown. Tags and fused reporters may be left off the sequences shown.

Molecular target: RepA (rep type protein encoded by repA of shuttle vector pWM321, derived from plasmid pC2A), N-terminal His-tagged (Methanosarcina acetivorans) (UniProt P94911)
Assay: SEC; purified RepA-His6 on an ENrich SEC 650 column in His-tag buffer (50 mM NaH2PO4, 300 mM NaCl, pH 6.9), 0.5 mL/min, calibrated with the Bio-Rad gel filtration standard; both purified

B1: RepA (rep type protein encoded by repA of shuttle vector pWM321, derived from plasmid pC2A), N-terminal His-tagged (protein, UniProt P94911 1-536)
chain: MSSDFSSRPGAVSYAPECRDFATCICTDGVLCPVRNKKNGVSICKYYSCPDFDFSKCSKYRPLKVGDFVLPAKGKRPAYCGRPFTYAVSENYNARKDLNSHCNTLSCPGCGILSELQHRFALVVILWTYALFSGQFPSWGFASMDFSRGVSVEAIRLFRRNLKDRLERWGVTAGTTIFHPYRIKPEITRAIRKLTGLKGNDDSEAFWNYIRDDHNEGNLNKIADLLNIEINSIYDCLILAPHFHFFIFPGNIRITGKNPKSKKRCKSDEYDIFIQRLSHKVNGKRQWELRSLMDIYKQVTYLYSHVGQLTDNRYGNIHIESRFGALFRWHPDKVVSSSGKLTFEQLIDTRTEVLNLINEGREVKLVYNGELKWEGQENDDTGWIPLTKLRDHFSGGRQALHAYLKEAKAVKPEYADYLQQLIARNNFYHNLKGRDGKNKVPKKWRKLWASPFKVDELPEFLKLEPAGSLLRVWFLEGLPDPPAGFLVVDSHQWEHDGCIIEESPEMPSNSLQKASEINYEELFTSLKSRSMMFGGD
binding: no binding
